In article PMC11269944 one finds binding data, which are given here for 3 molecules.

Chains of the proteins cited; added tags and fusions are not shown. Lines headed by an entry give the natural chain unless they say otherwise; changes in a name come on top.
UniProt Q9BRT9: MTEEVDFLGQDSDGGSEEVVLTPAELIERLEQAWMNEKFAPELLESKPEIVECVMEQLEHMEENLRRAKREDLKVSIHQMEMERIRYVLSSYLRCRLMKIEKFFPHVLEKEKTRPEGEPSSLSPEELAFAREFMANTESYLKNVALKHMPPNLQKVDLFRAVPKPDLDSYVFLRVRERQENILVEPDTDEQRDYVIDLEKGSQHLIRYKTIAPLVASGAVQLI
UniProt Q14691: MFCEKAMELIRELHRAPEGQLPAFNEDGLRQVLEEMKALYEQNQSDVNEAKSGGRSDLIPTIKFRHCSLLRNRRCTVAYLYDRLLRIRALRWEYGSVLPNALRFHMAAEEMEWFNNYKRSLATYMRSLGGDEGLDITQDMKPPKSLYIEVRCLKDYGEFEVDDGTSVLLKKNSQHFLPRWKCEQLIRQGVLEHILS
UniProt Q9Y248: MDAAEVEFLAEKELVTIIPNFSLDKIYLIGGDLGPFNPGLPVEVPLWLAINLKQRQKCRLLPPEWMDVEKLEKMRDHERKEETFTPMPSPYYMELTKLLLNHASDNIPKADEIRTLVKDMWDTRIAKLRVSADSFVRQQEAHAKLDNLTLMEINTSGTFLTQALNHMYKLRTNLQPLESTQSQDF
UniProt Q9BRX5: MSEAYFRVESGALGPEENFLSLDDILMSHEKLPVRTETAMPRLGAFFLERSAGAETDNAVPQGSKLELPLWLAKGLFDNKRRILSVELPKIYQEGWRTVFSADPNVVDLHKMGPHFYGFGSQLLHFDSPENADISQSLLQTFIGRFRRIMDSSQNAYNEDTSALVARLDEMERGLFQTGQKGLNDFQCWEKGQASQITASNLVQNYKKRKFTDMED

In one test the target is T1, FLAG-tagged LRR1 (human) (UniProt Q96L50).
T1 sequence: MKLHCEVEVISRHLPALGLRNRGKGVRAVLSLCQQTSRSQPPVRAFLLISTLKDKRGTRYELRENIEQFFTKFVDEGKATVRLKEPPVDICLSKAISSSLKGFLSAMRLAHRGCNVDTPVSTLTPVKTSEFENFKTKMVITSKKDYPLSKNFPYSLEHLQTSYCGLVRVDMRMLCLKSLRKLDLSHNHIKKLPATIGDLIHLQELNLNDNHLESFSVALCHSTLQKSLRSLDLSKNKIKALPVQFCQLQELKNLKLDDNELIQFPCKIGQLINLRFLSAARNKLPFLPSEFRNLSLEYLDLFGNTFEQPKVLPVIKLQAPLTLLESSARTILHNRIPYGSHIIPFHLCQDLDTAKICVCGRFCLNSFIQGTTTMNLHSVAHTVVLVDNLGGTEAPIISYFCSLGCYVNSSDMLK
In words: co-IP; chromatin extracts of FLAG-LRR1 or FLAG-LRR1ΔVHL expressing cells synchronised in S phase by release from DTB; 1 mg chromatin lysate with FLAG M2 beads, 2 h, 4°C; western blotting. Background: Immunoblotting shows a protein as a band on a membrane.

In test [1] the target is T2, GINS complex (SLD5, PSF1-3) (human (endogenous in U2OS and HCT116)) (UniProt Q9BRT9+Q14691+Q9Y248+Q9BRX5). Briefly: co-IP; GINS immunoprecipitated (Dynabeads Protein A coated with GINS antibodies, 2 h, 4°C) from S phase (DTB release) chromatin extracts of FLAG-LRR1 or FLAG-LRR1ΔVHL expressing cells; blot for FLAG.
Test [2] has as its target T2, GINS complex (SLD5, PSF1-3) (human (endogenous in U2OS and HCT116)). Briefly: co-IP; chromatin extracts of mAC-LRR1 expressing HCT116 cells synchronised in S phase (lovastatin release), treated with p97i (5 μM); immunoprecipitation with GINS antibody on Dynabeads Protein A, 2 h, 4°C.

These are yes or no findings as the source states them, for the method shown. Binding seen in cells or lysates may run through a third protein. Some binding calls cover weakened binding; strength is not graded here. Tags and fused reporters may be left off the sequences shown.

Consider “GINS complex (SLD5, PSF1-3) (from UniProt Q9BRT9 1-223; Q14691 1-196; Q9Y248 1-185; Q9BRX5 1-216)”, for which the binding entry with FLAG-tagged LRR1 (human) was “binds”.

B1: FLAG-tagged LRR1 (protein, UniProt Q96L50 1-414)
chain: T1 sequence
For the molecule B1, the binding result in test [1] is listed as “binds”.

B2: mAC-LRR1 (endogenous LRR1 tagged N-terminally with mini AID tag fused to mClover) (protein, UniProt Q96L50 1-414)
chain: T1 sequence
As to B2, the binding result in test [2] is reported as “binds”.
